Measured values as given in PMC6387943.
Results are given in words; binding and its absence hold for the method and conditions named. Binding calls can cover weak binding; strength is not graded here. Tags and fused reporters may be left off the sequences shown. For some assays here: Binding seen in cells or lysates may run through a third protein. Blank lines part the entries; values can stand above or below the binder they belong to.

Assays:
[1] = biological target: SAP30 FUNCTION-RELATED 2 (AFR2), GAL4 DNA-binding domain fusion (Arabidopsis thaliana); test: two-hybrid; BD Matchmaker system; GAL4 BD-AFR (pGBKT7) and GAL4 AD-LNK (pGADT7) cotransformed into yeast AH109; interaction read by cell growth on selective medium (-LWHA)
[2] = biological target: SAP30 FUNCTION-RELATED 1 (AFR1), GAL4 DNA-binding domain fusion (Arabidopsis thaliana); test: as above
[3] = biological target: AFR1-nYFP (Arabidopsis thaliana); test: split reporter; BiFC: AFR-nYFP and LNK-cYFP cotransformed into Arabidopsis protoplasts; reconstituted YFP fluorescence by confocal microscopy; IDD14-RFP as nuclear marker
[4] = biological target: AFR2-nYFP (Arabidopsis thaliana); test: as above

binding [1]: binds
binding [2]: binds
B1: NIGHT LIGHT-INDUCIBLE AND CLOCK-REGULATED 2 (LNK2), GAL4 activation domain fusion (protein, UniProt F4JCX9 1-663)
chain: MFDWEEEELTNMIWGDDAETGDHIVPFKVRSEQLNKKEQIEESKTAEQKITGTKIDLHDKNLGSSSSHNVDEGLPQPDFCMSSWPDTSLTNATKVDQDLSATELSKCLAEPVRYDSTRGGAFLLKQSCFTWVRSFQSNHFKSCVLTLFLPEKTSELGKGPDIFHSSDESKEQGDFDDYSWANIGSFDDLDRMFSDGFAAMMSLYLVMAVSAVVMSYGHLLKITEFEQQENQQFPLTGKANGLSSQSVPSVRVTLKADQYREHKGQPSVEDQPYQQNKMMKFSKMPGTSEARPFQELYGQRIPFSNSAGKCVNQLAPPQSSLMAVNLLSESEGSGTSHYSHMPNQYMANSAFGNLANPYSSVPVISAVQHPDVRNQLMHPSYNPATATSVNMATDASARPSTMTPQEKLEKLRRRQQMQAMLAIQRQQQQFSHQVPVADQSITQNCLQDIPLQLVDKTNLQGLTAMPSFDPSSSLEQDDSGKFAAAVDNSAEFAVLYRLQDVVAKLDMGTRTCIRDSLFRLAGSAAQRHYTSDTSHSNKTSQDDQEVIPREESRYRYAGMPDTEAVTNPTDRTVAHLLFHRPFDMLAAKRMEGPESPASSKMGTEEKGNFPKCSIRETHLTKQKAQKEEGPADSLALGNAPNSGSSSTVGERVVEASQGNKRKL

binding [3]: binds
binding [4]: binds
B2: LNK2-cYFP (protein, UniProt F4JCX9 1-663)
chain: B1 chain

binding [1]: binds
binding [2]: binds
B3: NIGHT LIGHT-INDUCIBLE AND CLOCK-REGULATED 1 (LNK1), GAL4 activation domain fusion (protein, UniProt A8MQN2 1-616)
chain: MSDLYIHELGDYLSDEFHGNDDGIVPDSAYEDGGQFPILVSNRKKRRNDDMGSGTNHLKSNTFIKREANMLGKNPWPEKDSGGSSVSRDTGTGKDVQDMTLEDTNTSDHGFNGGHVDVVENFSTGDPMLCDTSAATNDGVYNYSLNSIPDAENDLSFFDNGDKEKNDLFYGWGDIGNFEDVDNMLRSCDSTFGLDSLNNEGDLGWFSSAQPNEETAGAMTDDLKPDKMLENQRTAMLQVEDFLNNSEPNHAVEDEYGYTIEDDSAQGKSSQNVFDTSLQKKDILMLDVEANLEKKQTDHLHHLDGKSDGFSENSFTLQHSGISREIMDTNQYYPPSAFQQRDVPYSHFNCEQPSVQVSACESKSGIKSENKPSPSSASNESYTSNHAQSIESLQGPTVDDRFRKVFETRANLLPGQDMPPSFAANTKKSSKTDSMVFPDAAPIQKIGLENDHRKAATELETSNMQGSSCVSSVVDDISLEATSFRQLQQVIEQLDVRTKLCIRDSLYRLAKSAEQRHHGGNRPEKGAGSHLVTGEADKYAGFMDIETDTNPIDRSIAHLLFHRPSDSSLSSDNNVLSYKSHPMIPQPNSSPSLRIEKQEETTELRPEAEVVTSDNN

binding [3]: binds
binding [4]: binds
B4: LNK1-cYFP (protein, UniProt A8MQN2 1-616)
chain: B3 chain
